Measured values reported in PubChem BioAssay AID2685 (National Center for Advancing Translational Sciences (NCATS), 2010).
Some of the results follow. Shown are side measurements of this screen, not its main read-out; they come without a call. Compounds called inactive in the main read-out are mostly missing here. Potencies come from curve fits of mixed quality, noted in brackets.

Assay: qHTS Assay for Lipid Storage Modulators in Drosophila S3 Cells;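 as to cell number change: cells counted by Cell Tracker Red CMTPX staining in the red channel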
Settings: BODIPY lipid droplet fluorescence, 18-24 h; for cell number change: measured here: cell count max response, cells fed with added oleic acid
Method in brief: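 Drosophila S3 cells got compounds at several concentrations plus oleic acid (400 uM solution). Laser-scanning cytometry with 488 nm excitation read lipid droplets at 500-530 nm and cells at 575-640 nm. Percent activity was relative to 20 uM Triacsin C.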

[1] = measured here: lipid fluorescence (Fed channel) AC50, cells fed with added oleic acid
[2] = measured here: cell number channel AC50, cells fed with added oleic acid

Structure (SMILES) | AC50 [1] | AC50 [2] | cell number change [%]
CCCN1C(=O)/C(=C2\SC(=S)N(c3c(C)n(C)n(-c4ccccc4)c3=O)C2=O)c2ccccc21 | 0.13 µM [falling, full curve, poor fit] |  | 
Cn1c(CNC(=O)c2ccco2)nnc1SCC(=O)Nc1cccc(Br)c1 | 18.4 µM [falling, partial curve] |  | 
CCOC(=O)C1=C(CSc2nc(CC)c(C)cc2C#N)OC(N)=C(C#N)C1c1ccccc1 (centres undefined) | 29.1 µM [falling, single point] | 6.51 µM [rising, single point] | 
CC(=O)c1c(-c2ccc(Cl)cc2)c2ccccc2[nH]c1=O | 20.6 µM [falling, partial curve] |  | -1.04
CC(C)(C)NCC(O)COc1ccc(Br)cc1 (centres undefined) | 1.84 µM [falling, partial curve, poor fit] |  | -46.5
COc1ccc(-c2nc(CN3CCCC(C(=O)NC4CCCC4)C3)c(C)o2)cc1 (centres undefined) | 0.13 µM [rising, full curve, poor fit] |  | 3.4
COc1ccc(C(=O)NCC(=O)c2ccccc2)cc1 | 29.1 µM [rising, single point] |  | 9.49
O=C(COc1ccccc1)NNc1nc2ccccc2s1 |  |  | 27.5
C=CCN1C=C2C(=O)C(C)(OC(=O)CCC(=O)OC)C(=O)C(Br)=C2C=C1c1ccc(OC)cc1 (centres undefined) | 32.6 µM [falling, single point] | 32.6 µM [falling, single point] | -32.6
COc1cc(C(=O)NCCCNc2nc3cc(C)cc(C)c3cc2C#N)cc(OC)c1OC |  |  | 13
NC(=O)NC(c1ccccc1)c1ccccc1 | 3.66 µM [rising, single point] |  | 2.29
COc1cccc(NC(=O)CN(C)C(=O)Cc2c(C)nc3ccccc3c2C)c1 | 4.11 µM [falling, single point] |  | -0.249
CCOc1cc(N2CCOCC2)c(OCC)cc1NC(=O)c1ccc(S(C)(=O)=O)cc1 | 29.1 µM [rising, single point] |  | 
Cc1ccc(OCCCN(C)C)c(Br)c1 | 9.2 µM [falling, partial curve, poor fit] | 0.0731 µM [falling, full curve, poor fit] | -9.51
CCC1CCCCN1C(=O)CCS(=O)(=O)c1ccc2c(c1)CCN2C(C)=O (centres undefined) | 0.461 µM [falling, full curve] | 29.1 µM [falling, single point] | -68.4
O=C(Cn1c(=O)[nH]c2ccccc2c1=O)Nc1ccc2c(c1)OCO2 | 20.6 µM [falling, partial curve] |  | 12.2
COCCn1ccc2c(OCC(=O)NCCc3ccccc3)cccc2c1=O |  |  | 5.62
CCC(C)N(C(=O)c1csnn1)C(C(=O)NC1CCCC1)c1c(F)cccc1Cl (centres undefined) | 1.84 µM [falling, single point] |  | 20.1
CCN(CC)S(=O)(=O)c1ccc(C(=O)OCC(=O)N2CCN(C(=O)c3ccco3)CC2)cc1 | 0.58 µM [falling, partial curve] |  | -4.88
CCOC(=O)c1c(-c2ccccc2)csc1NC(=O)CSc1nnnn1C | 3.66 µM [rising, partial curve] |  | -15.2

Structure (SMILES) | AC50 [1] | AC50 [2] | cell number change [%]
CCC(=O)Nc1ccc(S(=O)(=O)NCC2CCCO2)cc1 (centres undefined) | 6.51 µM [falling, single point] |  | 3.91
COc1ccccc1Cn1c(=S)[nH]c2cc(C(=O)N3CCN(c4ccccc4OC)CC3)ccc2c1=O | 2.06 µM [rising, partial curve, poor fit] |  | -20
Cc1nnc(N(Cc2ccco2)C(=O)c2ccno2)s1 | 29.1 µM [rising, single point] |  | -5.83
COc1ccc(-n2nc(C(=O)O)c3ccccc3c2=O)cc1 | 29.1 µM [falling, single point] |  | -42.1
C/C(=N\NC(=O)c1cc(-c2cccnc2)nc2ccccc12)c1ccc(O)cc1O |  |  | -8.86
COc1ccc(C(=O)COC(=O)c2ccc3ccccc3n2)cc1 | 20.6 µM [falling, single point] | 20.6 µM [falling, partial curve] | -62.9
COC(=O)CSc1snnc1-c1ccc(F)cc1 | 3.66 µM [falling, single point] |  | -4.14
CC12CC(NC(=O)N1Cc1ccccc1)c1ccccc1O2 (centres undefined) | 1.46 µM [falling, partial curve] |  | 0.4
Nc1nc2c(F)c(F)c(F)cc2s1 |  |  | -4.21
CCCCCCn1c(COc2ccccc2F)nnc1SCC(=O)c1c(N)n(C)c(=O)n(C)c1=O | 29.1 µM [rising, single point] |  | 20.3
Cc1csc2nc(CCNS(=O)(=O)c3cccs3)cn12 | 29.1 µM [rising, single point] |  | 6.92
O=C(NCCCN1CCCC1=O)c1ccc(S(=O)(=O)Nc2ccccc2F)cc1 |  |  | 15.5
COc1ccc(Cl)cc1Nc1nc(N2CCCC2)nc(N2CCCC2)n1 | 29.1 µM [falling, single point] |  | 4.31
CCOC(=O)/C(=N/Nc1ccc(C)cc1)S(=O)(=O)c1ccc(Cl)cc1 |  | 1.84 µM [rising, partial curve, poor fit] | 16.5
COC(=O)c1ccc(/C(O)=C(\C#N)c2nc3ccccc3s2)cc1 | 6.51 µM [falling, single point] |  | -12.8
CCCn1nnc(NC(=O)c2ccc(OC)cc2)n1 | 0.0058 µM [falling, full curve] |  | 5.06
COc1cccc(N(CC(=O)O)S(=O)(=O)c2ccccc2)c1 | 20.6 µM [rising, single point] |  | -16.5
Cc1ccc(NC(=S)N2CCN(S(=O)(=O)c3ccccc3)CC2)cc1C | 4.11 µM [rising, partial curve] |  | -6.65
CCOc1ccc(NC(=S)Nc2ccc(OC)cc2)cc1 | 0.651 µM [rising, partial curve, poor fit] | 0.116 µM [rising, full curve, poor fit] | 25.8

Entries of single compounds, quoted from the list:
COC(=O)CSc1snnc1-c1ccc(F)cc1 as listed: AC50 [1]: 3.66 µM [falling, single point]; cell number change [%]: -4.14
COC(=O)c1ccc(/C(O)=C(\C#N)c2nc3ccccc3s2)cc1 as listed: AC50 [1]: 6.51 µM [falling, single point]; cell number change [%]: -12.8
